Source: PMC11027154 (Journal of the American Chemical Society, 2024)

Experiment: peptide synthesis
Settings: cyclisation step

Which difficulty met (run 1) does the source give for “PEPTIDE1{C.D.A.S.C.C.I.R.E.I.S.L.L.C.E.Y.C.G.C.[am]}|CHEM1{[TMB]}|CHEM2{[TMB]}$PEPTIDE1,CHEM1,1:R3-1:R1|PEPTIDE1,CHEM1,5:R3-1:R2|PEPTIDE1,CHEM1,6:R3-1:R3|PEPTIDE1,CHEM2,14:R3-1:R1|PEPTIDE1,CHEM2,17:R3-1:R2|PEPTIDE1,CHEM2,19:R3-1:R3$$$V2.0” here?
Its difficulty met is “many products were formed (Figure S1)”.

What about the difficulty met (run 2) of the same substance?
Its difficulty met is “but this also gave many products (Figure S2b)”.

HELM strings list residues between dots; [ac] is acetyl, [am] amide, other brackets name non-standard units.
